Assay results reported in the supplement of paper PMC10626197.
Where a name gives a salt, the structure may show the parent alone. Several reference drugs read as weak here; read low effects with care.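 Drug pairs were tested on MCF7 breast cancer cells in a dose grid. On every plate, solvent-only DMSO wells served as the untreated reference, and a doxorubicin series served as the total-kill control. No hit threshold applies to the viability readings.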

Tested on: MCF7
Assay: cell viability relative to DMSO control (raw); higher = more viable cells
Conditions: exposure time 72 h
Method: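 MCF7 cells, 1000 cells/well in 384-well plates, treated with 6x6 dose matrices of drug pairs (1:3 serial dilutions, DMSO as lowest dose) for 72 h at 37 °C. Viability read by CellTiter-Glo luminescence, 3 biological replicates. Normalised viability sets 0% at the highest doxorubicin dose and 100% at the 0,0 µM control per combination.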

Cc1ccc(Nc2nccc(N(C)c3ccc4c(C)n(C)nc4c3)n2)cc1S(N)(=O)=O [Pazopanib] + Cc1ncc(NC(=O)c2ccc(CN3CCN(C)CC3)c(C(F)(F)F)c2)cc1Nc1nccc(-c2cccnc2)n1 [Flumatinib (mesylate)]
cell viability [%]
Conditions | drug 2 concentration 0 µM | drug 2 concentration 0.617284 µM | drug 2 concentration 1.85185 µM | drug 2 concentration 5.55556 µM | drug 2 concentration 16.6667 µM | drug 2 concentration 50 µM
drug 1 concentration 0.617284 µM | 83.1 | 87.3 | 90.9 | 89.9 | 88.9 | 0.647
drug 1 concentration 1.85185 µM | 88.3 | 89.1 | 93.1 | 93.4 | 94.9 | 0.302
drug 1 concentration 5.55556 µM | 77.2 | 79.2 | 83 | 83.2 | 42.1 | 0.366
drug 1 concentration 16.6667 µM | 56.6 | 52.2 | 46.6 | 48.4 | 0.556 | 0.119
drug 1 concentration 50 µM | 69.9 | 69.8 | 59.8 | 29 | 0.529 | 0.318

C#CCC(Cc1cnc2nc(N)nc(N)c2n1)c1ccc(C(=O)N[C@@H](CCC(=O)O)C(=O)O)cc1 (stereo not given in full) [Pralatrexate] + C[C@@H](NCCCc1cccc(C(F)(F)F)c1)c1cccc2ccccc12 [Cinacalcet (hydrochloride)]
cell viability [%]
Conditions | drug 2 concentration 0 µM | drug 2 concentration 0.123457 µM | drug 2 concentration 0.37037 µM | drug 2 concentration 1.11111 µM | drug 2 concentration 3.33333 µM | drug 2 concentration 10 µM
drug 1 concentration 0.000493827 µM | 76.9 | 83.3 | 86.4 | 79.9 | 51.2 | 8.17
drug 1 concentration 0.00148148 µM | 88.1 | 77 | 95.5 | 81.1 | 58.9 | 9.54
drug 1 concentration 0.00444444 µM | 78.4 | 87.9 | 86.4 | 79 | 55.9 | 7
drug 1 concentration 0.0133333 µM | 94.9 | 92.1 | 97.8 | 92.7 | 72.5 | 11.5
drug 1 concentration 0.04 µM | 105 | 101 | 102 | 93.2 | 63.2 | 9.7

O=C(c1ccc(OCCN2CCCCC2)cc1)c1c(-c2ccc(O)cc2)sc2cc(O)ccc12 [Raloxifene] + COc1ccc2cccc(CCNC(C)=O)c2c1 [Agomelatine]
cell viability [%]
Conditions | drug 2 concentration 0 µM | drug 2 concentration 0.123457 µM | drug 2 concentration 0.37037 µM | drug 2 concentration 1.11111 µM | drug 2 concentration 3.33333 µM | drug 2 concentration 10 µM
drug 1 concentration 0.0617284 µM | 99 | 100 | 105 | 102 | 107 | 104
drug 1 concentration 0.185185 µM | 103 | 111 | 105 | 113 | 112 | 109
drug 1 concentration 0.555556 µM | 103 | 105 | 103 | 107 | 110 | 104
drug 1 concentration 1.66667 µM | 101 | 102 | 105 | 102 | 104 | 99.5
drug 1 concentration 5 µM | 93.2 | 95 | 92.9 | 94.7 | 89.8 | 101

O=C(c1ccc(OCCN2CCCCC2)cc1)c1c(-c2ccc(O)cc2)sc2cc(O)ccc12 [Raloxifene] + C[C@]12CC[C@@H]3c4ccc(O)cc4CC[C@H]3[C@@H]1CC[C@@H]2O [Estradiol]
cell viability [%]
Conditions | drug 2 concentration 0 µM | drug 2 concentration 0.123457 µM | drug 2 concentration 0.37037 µM | drug 2 concentration 1.11111 µM | drug 2 concentration 3.33333 µM | drug 2 concentration 10 µM
drug 1 concentration 0.0617284 µM | 104 | 101 | 94.2 | 93.3 | 96.5 | 98.6
drug 1 concentration 0.185185 µM | 88.5 | 93.1 | 90.1 | 97.4 | 88.9 | 89.8
drug 1 concentration 0.555556 µM | 97.7 | 96.8 | 94.2 | 95.7 | 106 | 96.9
drug 1 concentration 1.66667 µM | 92.8 | 102 | 97.7 | 99.2 | 100 | 97.5
drug 1 concentration 5 µM | 92.3 | 104 | 111 | 109 | 123 | 108

N#CC[C@H](C1CCCC1)n1cc(-c2ncnc3[nH]ccc23)cn1 [Ruxolitinib] + CCC(=O)OCC(=O)[C@@]1(OC(=O)CC)[C@@H](C)C[C@H]2[C@@H]3CCC4=CC(=O)C=C[C@]4(C)[C@@]3(F)[C@@H](O)C[C@@]21C [Betamethasone dipropionate]
cell viability [%]
Conditions | drug 2 concentration 0 µM | drug 2 concentration 0.037037 µM | drug 2 concentration 0.111111 µM | drug 2 concentration 0.333333 µM | drug 2 concentration 1 µM | drug 2 concentration 3 µM
drug 1 concentration 0.37037 µM | 108 | 105 | 111 | 108 | 105 | 105
drug 1 concentration 1.11111 µM | 110 | 106 | 119 | 115 | 111 | 111
drug 1 concentration 3.33333 µM | 118 | 118 | 114 | 113 | 110 | 115
drug 1 concentration 10 µM | 130 | 122 | 122 | 125.5 | 126 | 120
drug 1 concentration 30 µM | 83.3 | 82.3 | 89.2 | 86.5 | 81.6 | 73.9

CNC(=O)c1cc(Oc2ccc(NC(=O)Nc3ccc(Cl)c(C(F)(F)F)c3)cc2)ccn1 [Sorafenib] + CNS(=O)(=O)Cc1ccc2[nH]cc(CCN(C)C)c2c1 [Sumatriptan (succinate)]
cell viability [%]
Conditions | drug 2 concentration 0 µM | drug 2 concentration 0.0740741 µM | drug 2 concentration 0.222222 µM | drug 2 concentration 0.666667 µM | drug 2 concentration 2 µM | drug 2 concentration 6 µM
drug 1 concentration 0.493827 µM | 88.1 | 94.4 | 98.8 | 92.1 | 94 | 93.1
drug 1 concentration 1.48148 µM | 89.9 | 86.8 | 92.1 | 90.5 | 90.6 | 87.2
drug 1 concentration 4.44444 µM | 57.5 | 58.9 | 56.5 | 57.6 | 61.1 | 58.1
drug 1 concentration 13.3333 µM | 19.8 | 26.2 | 23.7 | 25.6 | 26.5 | 25
drug 1 concentration 40 µM | 2.63 | 1.71 | 3.05 | 2.62 | 4.22 | 4.07

CC/C(=C(\c1ccccc1)c1ccc(OCCN(C)C)cc1)c1ccccc1 [Tamoxifen] + CCCCC[C@H](O)/C=C/[C@H]1[C@H](O)CC(=O)[C@@H]1CCCCCCC(=O)O [Prostaglandin E1]
cell viability [%]
Conditions | drug 2 concentration 0 µM | drug 2 concentration 0.617284 µM | drug 2 concentration 1.85185 µM | drug 2 concentration 5.55556 µM | drug 2 concentration 16.6667 µM | drug 2 concentration 50 µM
drug 1 concentration 0.123457 µM | 108 | 109 | 108 | 113 | 104 | 73.9
drug 1 concentration 0.37037 µM | 103 | 118 | 124 | 117 | 110 | 75.7
drug 1 concentration 1.11111 µM | 105 | 115 | 114 | 109 | 104 | 83.3
drug 1 concentration 3.33333 µM | 95.8 | 102 | 116 | 102 | 99.4 | 74.6
drug 1 concentration 10 µM | 54.7 | 49 | 57 | 59.5 | 56.6 | 44.5

CC/C(=C(\c1ccccc1)c1ccc(OCCN(C)C)cc1)c1ccccc1 [Tamoxifen] + COc1ccc2cc([C@H](C)C(=O)O)ccc2c1 [Naproxen]
cell viability [%]
Conditions | drug 2 concentration 0 µM | drug 2 concentration 0.0925926 µM | drug 2 concentration 0.277778 µM | drug 2 concentration 0.833333 µM | drug 2 concentration 2.5 µM | drug 2 concentration 7.5 µM
drug 1 concentration 0.123457 µM | 101 | 94.2 | 96.2 | 103 | 96.8 | 105
drug 1 concentration 0.37037 µM | 103 | 109 | 118 | 121 | 115 | 112
drug 1 concentration 1.11111 µM | 98.7 | 108 | 104 | 107 | 110 | 114
drug 1 concentration 3.33333 µM | 87.7 | 94.4 | 90.4 | 85.3 | 95.4 | 84.3
drug 1 concentration 10 µM | 33.5 | 33.8 | 32.3 | 31.1 | 27.8 | 24.7

CC[C@@]1(O)C(=O)OCc2c1cc1n(c2=O)Cc2cc3c(CN(C)C)c(O)ccc3nc2-1 [Topotecan] + CC(C)NCC(O)COc1ccc(CCOCC2CC2)cc1 [Betaxolol (hydrochloride)]
cell viability [%]
Conditions | drug 2 concentration 0 µM | drug 2 concentration 0.308642 µM | drug 2 concentration 0.925926 µM | drug 2 concentration 2.77778 µM | drug 2 concentration 8.33333 µM | drug 2 concentration 25 µM
drug 1 concentration 0.00617284 µM | 112 | 108 | 106 | 108 | 103 | 101
drug 1 concentration 0.0185185 µM | 110 | 124 | 121 | 121 | 102.9 | 103
drug 1 concentration 0.0555556 µM | 100 | 102 | 104 | 107 | 101 | 103
drug 1 concentration 0.166667 µM | 97.2 | 100 | 99 | 103 | 101 | 103
drug 1 concentration 0.5 µM | 89.8 | 89.9 | 92.5 | 87.9 | 97.2 | 91

COc1cc2/c(=N/c3ccc(Br)cc3F)nc[nH]c2cc1OCC1CCN(C)CC1 [Vandetanib] + C=C1/C(=C\C=C2/CCC[C@]3(C)[C@@H]([C@H](C)CCCC(C)C)CC[C@@H]23)C[C@@H](O)C[C@@H]1O [Alfacalcidol]
cell viability [%]
Conditions | drug 2 concentration 0 µM | drug 2 concentration 0.617284 µM | drug 2 concentration 1.85185 µM | drug 2 concentration 5.55556 µM | drug 2 concentration 16.6667 µM | drug 2 concentration 50 µM
drug 1 concentration 0.0617284 µM | 77.6 | 77.89 | 75.8 | 70 | 62.7 | 0.72
drug 1 concentration 0.185185 µM | 76.75 | 74.6 | 75.58 | 73.8 | 61.6 | 0.334
drug 1 concentration 0.555556 µM | 68.9 | 70.9 | 68 | 73.1 | 56.7 | 0.332
drug 1 concentration 1.66667 µM | 70 | 67.9 | 65.9 | 65.1 | 55.5 | 0.217
drug 1 concentration 5 µM | 66.5 | 62.4 | 63.3 | 57.4 | 37.3 | 0.384

COc1cc2/c(=N/c3ccc(Br)cc3F)nc[nH]c2cc1OCC1CCN(C)CC1 [Vandetanib] + CCOC(=O)[C@H](CCc1ccccc1)N[C@@H](C)C(=O)N1[C@H](C(=O)O)C[C@@H]2CCC[C@@H]21 [Ramipril]
cell viability [%]
Conditions | drug 2 concentration 0 µM | drug 2 concentration 0.0617284 µM | drug 2 concentration 0.185185 µM | drug 2 concentration 0.555556 µM | drug 2 concentration 1.66667 µM | drug 2 concentration 5 µM
drug 1 concentration 0.0617284 µM | 93.2 | 97.9 | 100 | 104 | 103 | 91.5
drug 1 concentration 0.185185 µM | 105 | 105 | 96.3 | 105.67 | 103 | 107
drug 1 concentration 0.555556 µM | 86.2 | 89.5 | 91 | 88.8 | 88.2 | 81.6
drug 1 concentration 1.66667 µM | 94.1 | 92.3 | 91.4 | 88.7 | 91.1 | 80.1
drug 1 concentration 5 µM | 82 | 92.6 | 88.5 | 91.9 | 76.2 | 69.8

COc1cc2/c(=N/c3ccc(Br)cc3F)nc[nH]c2cc1OCC1CCN(C)CC1 [Vandetanib] + CNC[C@H](O)c1ccc(O)c(O)c1 [Epinephrine HCl]
cell viability [%]
Conditions | drug 2 concentration 0 µM | drug 2 concentration 0.0740741 µM | drug 2 concentration 0.222222 µM | drug 2 concentration 0.666667 µM | drug 2 concentration 2 µM | drug 2 concentration 6 µM
drug 1 concentration 0.0617284 µM | 104 | 97.6 | 102 | 103 | 92.9 | 71.8
drug 1 concentration 0.185185 µM | 110 | 104 | 113 | 102 | 100 | 64.4
drug 1 concentration 0.555556 µM | 108 | 104 | 100 | 101 | 90.2 | 68.6
drug 1 concentration 1.66667 µM | 89.78 | 92 | 88.6 | 88.1 | 80.5 | 62
drug 1 concentration 5 µM | 89.7 | 94.7 | 86.6 | 83.8 | 78.1 | 52
